This note sets out measurements from paper PMC9563285.

Chains of the proteins cited; added tags and fusions are not shown. Residues count along the entry.
UniProt P24807, residues 27-53: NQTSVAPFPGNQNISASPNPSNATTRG

Assay [1] addresses phosphorylated epidermal growth factor receptor (pEGFR) (mouse (endogenous in MEF)) (UniProt Q01279). Put plainly: co-IP; cytosolic and nuclear extracts of cells treated with or without pyrotinib (1 uM), immunoprecipitated with anti-EGFR or anti-pEGFR antibody, protein-A/G agarose, immunoblot.
The target is the same in assay [2]. Description: co-IP; 1 ug anti-pEGFR antibody incubated with whole lysate of MEF-derived cells treated with or without pyrotinib (1 uM), captured on protein-A/G agarose overnight at 4 C, washed 5 times, immunoblot. A general note: In western blotting, separated proteins are transferred to a membrane and probed.

Results are given in words; binding and its absence hold for the method and conditions named. Binding seen in cells or lysates may run through a third protein. Some results given as binding are weak or reduced against the parent protein; the word gives no strength.

Turning to “Cluster of differentiation 24 (CD24) (from UniProt P24807 27-53)”, the binding entry in assay [1] and in assay [2] was “binds” in each case.
